Results taken from patent publication EP0166969A2, “Haemostyptic” (priority 1984, dated 1986).
At least one compound was matched to its structure with a doubt left.

Tested on: Schweineleber
Experiment: Comparative haemostyptic efficacy of components, mixtures and esters in rat models and pig liver
Assay type: in vivo, Ratten
Conditions: qualitative
Description: Unter einem Hämostypticum versteht man Mittel zur Blutstillung, die sowohl die Blutungszeit als auch den Blutverlust bei mechanischen Verletzungen herabsetzen. Die Blutgerinnung ist ein in den letzten Jahren intensiv untersuchter komplexer Vorgang, der sich in verschiedenster Weise beeinflussen läßt. Die Blutstillung und der Blutverlust hängen wiederum in erster Linie vom Umfang und der Geschwindigkeit der Blutgerinnung ab, jedoch spielen hier auch noch weitere Faktoren mit hinein, die bisher noch nicht ausreichend untersucht und geklärt werden konnten. Eine besondere Schwierigkeit bei der Untersuchung von Hämostyptica ist die Erarbeitung von zuverlässigen und reproduzierbaren Versuchsbedingungen am Menschen und am Tier. Eine umfassende Zusammenstellung der bisher bekannten Methoden sowie die Beschreibung einer verbesserten Methode an der Ratte wird beschrieben in der Dissertation von Ennen 1981, am Institut für Pharmakologie, Toxikologie und Pharmazie der Tierärtzlichen Hochschule Hannover unter Leitung von Prof. Dr. K. Kaemmerer (Methodenbeitrag zur Bestimmung von Blutungszeit und Blutverlust bei Leberparenchymblutungen kleiner Versuchstiere). Im Rahmen dieser Untersuchungen wurden auch verschiedene bekannte Hämostasesysteme vergleichend untersucht. Zu den untersuchten Produkten gehörte auch das Hämostypticum Revici, welches von der Anmelderin seit Jahren vertrieben wird. […]

Structure (SMILES)	hämostyptische Wirksamkeit
CCCCCCOC(=O)CC(O)(CC(=O)OCCCCCC)C(=O)OCCCCCC [Trihexylcitrat]	durchaus interessante und für die Praxis brauchbare Wirkung
CCCCOC(=O)CC(O)(CC(=O)OCCCC)C(=O)OCCCC [TBC, Tri-n-butylcitrat]	wesentlich höher als die von n-Butanol
